For 4 molecules, binding results are on record in patent US20260061068A1.

Positions count from the first letter of the chain named. No constants are given. Whether binding was seen depends on the method and setting. Some binding calls cover weakened binding; strength is not graded here.

To fix the notation:
B1: F6 antibody (human IgG1 anti-CD19) (antibody, V domains shown)
VH: EVQLVQSGAEVKKPGESLKISCKGSGYSFTSYWIGWVRQMPGKGLEWMGIIYPGDSDTRYSPSFQGQVTISADKSISTAYLQWSSLKASDTAMYYCARVWYYDFWSGADAFDIWGQGTLVTVSS
VL: EIVMTQSPATLSVSPGERATLSCRASQSVSSNLAWYQQKPGQAPRLLIYGASTRATGIPARFSGSGSGTEFTLTISSLQSEDFAVYYCQQGSLEAPQTFGQGTKVEIK
B2: 5F5 antibody (human IgG1 anti-CD19) (antibody, V domains shown)
VH: EVQLVQSGAEVKKPGESLKISCKGSGYSFTSYWIGWVRQMPGKGLEWMGIIYPGDSDTRYSPSFQGQVTISADKSISTAYLQWSSLKASDTAMYYCARGISGIYNLHGFDIWGQGTLVTVSS
VL: DIQMTQSPSSLSASVGDRVTITCRASQSISSYLNWYQQKPGKAPKLLIYAASSLQSGVPSRFSGSGSGTDFTLTISSLQPEDFATYYCQQASLDSPLTFGQGTKVEIK
B3: 9G8 antibody (human IgG1 anti-CD19) (antibody, V domains shown)
VH: B2 VH with I100V
VL: B2 VL with A91G, S92R, L93F, D94G, L97F
B4: 7F11 antibody (human IgG1 anti-CD19) (antibody, V domains shown)
VH: B2 VH with I100V
VL: B2 VL with A91G, S92M, L93W, S95N, L97F

For the first assay, the target named is cynomolgus CD19 (cynomolgus monkey). The experiment in a line: FACS on CHO cells transfected with cynomolgus CD19.
For the molecule B1, the binding entry is given as “binds”.
With B2, the binding entry is recorded as “binds”.
For the molecule B3, the binding entry was “binds”.
Take B4: the binding entry is recorded as “binds”.

The target is the same in another assay. The experiment in a line: FACS on cynomolgus PBMC, B cell gate.
For B1, the binding result is “binds”.
As to B2, the binding entry is recorded as “binds”.
Regarding B3, the binding result was “binds”.
For the molecule B4, the binding entry is recorded as “binds”.
